# Results from the supplement of paper PMC12067093, “Discovery and optimisation of a covalent ligand for TRIM25 and its application to targeted protein ubiquitination” (Chemical Science, 2025).
# Some of the results follow.
# Compound: CC1Cc2ccccc2N1C(=O)C1CCCN(C1)C(=O)CCl (mixture of isomers) [TRIM25 ligand 11 (diastereomer mixture)]
# Experiment: probe-labelled cysteine peptide fold change vs DMSO (competition) (log2 fold change); higher = less target engagement (more negative = stronger competition)
# Conditions: THP-1, incubation time: 4 h
# 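Further: competitive chemoproteomic profiling in live THP-1 cells with an iodoacetamide desthiobiotin (IA-DTB) probe, comparing probe-labelled peptide intensities in compound-treated cells against DMSO-treated controls.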
Target,probe-labelled cysteine peptide fold change (10 µM),probe-labelled cysteine peptide fold change (50 µM)
DSTN_P60981_39_AVIFCLSADKK (UniProt P60981),-0.0635,-0.0141
DNMT1_P26358_686_QACQER (UniProt P26358),-0.414,0.0901
DPYSL2_Q16555_179_FQLTDCQIYEVLSVIR (UniProt Q16555),0.0597,0.143
DOK3_Q7L591_282_CHSGEGLFAFSTPCAPDLCR (UniProt Q7L591),0.0857,0.211
DYNC1LI2_O43237_234_CDAVSVLEK (UniProt O43237),0.0491,0.294
DTYMK_P23919_31_KLVEALCAAGHR (UniProt P23919),-0.0503,-0.0145
DPH7_Q9BTV6_33_HLLACGTYQLR (UniProt Q9BTV6),-0.00198,0.144
DPYSL2_Q16555_248_AITIANQTNCPLYITK (UniProt Q16555),-0.0281,0.083
DUS3L_Q96G46_162_CVLFETFGR (UniProt Q96G46),0.044,-0.0826
DOP1B_Q9Y3R5_2199_WAFIPEVDTEGPAFLSDVEENHQECKPHTVR (UniProt Q9Y3R5),0.131,-0.0631
DUS1L_Q6P1R4_395_CDQCGNPK (UniProt Q6P1R4),-0.0487,-0.0131
DOK1_Q99704_308_IAPCPSQDSLYSDPLDSTSAQAGEGVQR (UniProt Q99704),-0.0613,-0.556
DYNC1I2_Q13409_386_TPLSAAAHTHPVYCVNVVGTQNAHNLISISTDGK (UniProt Q13409),0.383,-0.0566
DOCK2_Q92608_1117_KATIPIFFDMMLCEYQR (UniProt Q92608),-0.119,0.0215
DOP1A_Q5JWR5_2127_EAFDLFMDPSFFQMDASCVNHWR (UniProt Q5JWR5),-0.177,0.066
DPYD_Q12882_671_KSEDSGADALELNLSCPHGMGER (UniProt Q12882),0.208,0.125
DUSP11_O75319_117_KLAPEECFSPLDLFNK (UniProt O75319),-0.0108,0.00877
DOCK8_Q8NF50_305_ISENFHCDLNSDQFK (UniProt Q8NF50),0.00696,-0.113
DNPEP_Q9ULA0_413_NDTPCGTTIGPILASR (UniProt Q9ULA0),0.199,0.09
DSTN_P60981_46_CIIVEEGK (UniProt P60981),0.187,0.135
EAPP_Q56P03_259+262_AETDVEEIYHPVMCTECSTEVAVYDKDEVFHFFNVLASHS (UniProt Q56P03),0.271,-0.0211

Target,probe-labelled cysteine peptide fold change (10 µM),probe-labelled cysteine peptide fold change (50 µM)
DPP3_Q9NY33_176_EGITTYFSGNCTMEDAK (UniProt Q9NY33),-0.0308,0.0141
DOCK8_Q8NF50_143_NQGSPEICGFK (UniProt Q8NF50),-0.0851,-0.363
DYNLT1_P63172_83_NGAGLHTASSCFWDSSTDGSCTVR (UniProt P63172),0.175,0.23
DPP9_Q86TI2_550_LTTPGFSHSCSMSQNFDMFVSHYSSVSTPPCVHVYK (UniProt Q86TI2),0.432,0.156
DUS3L_Q96G46_315_LYLAPLTTCGNLPFR (UniProt Q96G46),0.136,0.0337
DYNC1H1_Q14204_2454+2466_CLGSLFSMLHQACR (UniProt Q14204),-0.0399,0.0587
DOCK10_Q96BY6_1103_FDFLQEVCQHEHFIPLCLPIR (UniProt Q96BY6),0.128,-0.111
DOCK11_Q5JSL3_1074_FEFLQTICNHEHYIPLNLPMAFAK (UniProt Q5JSL3),0.132,0.169
DOCK6_Q96HP0_510_IDISPAPENPHFCLSPELLHIK (UniProt Q96HP0),-0.0429,0.0224
DOT1L_Q8TEK3_1397_EAGEGGLPLCGPTDK (UniProt Q8TEK3),-0.0423,-0.331
DUS1L_Q6P1R4_146_LSVPVTCK (UniProt Q6P1R4),0.0234,0.101
DOCK6_Q96HP0_595_SSCSEFTR (UniProt Q96HP0),0.122,-0.0201
EAF2_Q96CJ1_87+98_ECILIINHDTGECR (UniProt Q96CJ1),0.522,0.11
DUSP12_Q9UNI6_115_AVLVHCHAGVSR (UniProt Q9UNI6),0.171,0.202
DOCK2_Q92608_1203_MSCTVNLLNFYK (UniProt Q92608),0.0959,-0.0016
DSCC1_Q9BVC3_111_KEDSHCNIIHTEIFGFSNNYWELR (UniProt Q9BVC3),0.0847,-0.0429
DOK2_O60496_65_LSDCLR (UniProt O60496),-0.179,-0.0172
DOCK2_Q92608_1234_DLHLDCDNYTEAAYTLLLHTWLLK (UniProt Q92608),0.384,0.328
DYNC1H1_Q14204_2639_TFDHYCEYR (UniProt Q14204),0.159,0.134
DTWD2_Q8NBA8_252_NNYIQETLLRPLQALCSFQLQHGAQIR (UniProt Q8NBA8),-0.172,-0.484
DPF2_Q92785_333_CCNICGTSENDDQLLFCDDCDR (UniProt Q92785),-0.0533,0.0542

Target,probe-labelled cysteine peptide fold change (10 µM),probe-labelled cysteine peptide fold change (50 µM)
DTX3L_Q8TDB6_577_CKHEFCAPCINK (UniProt Q8TDB6),-0.0902,-0.26
DOK1_Q99704_115_SHLLAADAPSSAAWVQTLCR (UniProt Q99704),0.05,-0.0431
DOCK11_Q5JSL3_1204_DEFPCGFTSPANR (UniProt Q5JSL3),0.12,-0.196
DOK3_Q7L591_493_GPAPCDRP (UniProt Q7L591),0.118,0.0968
DTYMK_P23919_117_ENFSLDWCK (UniProt P23919),0.0467,0.0147
DSCR3_O14972_187_GHLNSTNCVITQPLTGELVVESSEAAIR (UniProt O14972),0.169,-0.0104
DYNC1I2_Q13409_331_KTTPEYVFHCQSAVMSATFAK (UniProt Q13409),0.134,0.233
DYNC1H1_Q14204_2663_WLVLFCDEINLPDMDK (UniProt Q14204),-0.0337,0.0297
DPH5_Q9H2P9_219_GEEPAVTEETLCVGLAR (UniProt Q9H2P9),0.0852,-0.16
DOP1B_Q9Y3R5_70_LAQCLHPALPSGVHLK (UniProt Q9Y3R5),0.262,0.136
DOK1_Q99704_224_RCPSGPGTFTFQTAQGNDIFQAVETAIHR (UniProt Q99704),-0.243,-0.147
DUS3L_Q96G46_408_KGGGCALMNR (UniProt Q96G46),0.0614,-0.163
DUS3L_Q96G46_282_TCGPLTDEDVVR (UniProt Q96G46),-0.261,-0.174
DTX3L_Q8TDB6_585_HEFCAPCINK (UniProt Q8TDB6),0.0682,0.0322
DYRK1A_Q13627_312_IVDFGSSCQLGQR (UniProt Q13627),0.13,0.143
DOCK10_Q96BY6_2047_KVSELNQLCTMEEVDMIR (UniProt Q96BY6),-0.0302,-0.0943
DNPEP_Q9ULA0_447_EMACTTGVLQTLTLFK (UniProt Q9ULA0),-0.0246,0.0396
DOCK8_Q8NF50_590_IQFMCGEDASNAMPVIFGK (UniProt Q8NF50),-0.02,0.209
DNMT1_P26358_664_CGVCEVCQQPECGK (UniProt P26358),-0.0465,-0.119
DYNC1H1_Q14204_3693_DPTVEFPPDLCSR (UniProt Q14204),0.334,0.235
DYNC1H1_Q14204_4644_GVAVLCTE (UniProt Q14204),0.0055,0.0643

Target,probe-labelled cysteine peptide fold change (10 µM),probe-labelled cysteine peptide fold change (50 µM)
DRAM2_Q6UX65_252_VEANLHGLTLYDTAPCPINNER (UniProt Q6UX65),0.183,-0.00108
DOCK8_Q8NF50_186_HLNVLCDVSGK (UniProt Q8NF50),-0.0767,-0.13
EAF1_Q96JC9_86_DCVLIINHDTGEYVLEK (UniProt Q96JC9),0.0346,0.153
DOCK5_Q9H7D0_627_DSFQIATLICSTK (UniProt Q9H7D0),-0.0157,-0.0163
DNMT3A_Q9Y6K1_911_EYFACV (UniProt Q9Y6K1),-0.106,-0.0101
EARS2_Q5JPH6_411_QGHICR (UniProt Q5JPH6),-0.0604,0.163
DYNC1I2_Q13409_331_TTPEYVFHCQSAVMSATFAK (UniProt Q13409),0.08,0.0525
DOCK8_Q8NF50_361_VLQQGEIGDCAEPYTVIK (UniProt Q8NF50),0.147,0.0195
DPP7_Q9UHL4_338_LYHSCADPTGCGTGPDAR (UniProt Q9UHL4),0.0279,0.022
DOK1_Q99704_224_CPSGPGTFTFQTAQGNDIFQAVETAIHR (UniProt Q99704),0.0799,0.0553
DYNC1H1_Q14204_1977_MLSAVSQQVQCIQEALR (UniProt Q14204),0.218,0.0709
DPYSL2_Q16555_504_GLYDGPVCEVSVTPK (UniProt Q16555),0.000425,0.0459
DPCD_Q9BVM2_164_HQLPLDDALLSFAHANCTLIISYQK (UniProt Q9BVM2),0.156,0.141
DYNC1H1_Q14204_1977_MLSAVSQQVQCIQEALREHSNPNYDK (UniProt Q14204),-0.708,-0.193
DTNBP1_Q96EV8_302_AKPPSSSSTCTDSATR (UniProt Q96EV8),-0.104,-0.135
DPP8_Q6V1X1_611_LSSPEDDPTCK (UniProt Q6V1X1),0.0995,0.0507
DPP9_Q86TI2_259_FTGYWWCPTASWEGSEGLK (UniProt Q86TI2),-0.024,0.118
DPH5_Q9H2P9_120_VIHNASIMNAVGCCGLQLYK (UniProt Q9H2P9),0.276,0.259
DPYSL2_Q16555_132_SCCDYSLHVDISEWHK (UniProt Q16555),0.359,-0.0333
